Data published in patent publication US7060506.
These are yes or no findings as the source states them, for the method shown. Some binding calls cover weakened binding; strength is not graded here.

Amino acid sequences for entries named in this document (tags omitted). A change or cut given only in a name is not applied to a line headed by its entry. Chains listed by the source or under a name are the forms on record and can include a tag or linker.
ZAP70-FJ (P43403, form named): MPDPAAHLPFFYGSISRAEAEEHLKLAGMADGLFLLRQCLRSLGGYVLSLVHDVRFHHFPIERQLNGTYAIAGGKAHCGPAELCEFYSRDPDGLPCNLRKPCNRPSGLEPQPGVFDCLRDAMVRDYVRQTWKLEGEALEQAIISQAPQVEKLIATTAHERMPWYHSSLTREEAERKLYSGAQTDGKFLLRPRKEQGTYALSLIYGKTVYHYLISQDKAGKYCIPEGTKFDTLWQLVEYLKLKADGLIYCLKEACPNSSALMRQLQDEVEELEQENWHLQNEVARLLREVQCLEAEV

Biological target: ZAP70-FJ (UniProt P43403)
Assay: fluorescence polarisation, 1 µM labeled peptide with ZAP70-FJ purification fractions

RMRQLEDRVEELREQNWHLANQVARLRQRVCELKARV (labeled with fluorescein (position not given)) [Peptide 1 (synthetic Fos/Jun polypeptide partner), labeled with fluorescein]
binding: binds
